# Reference: the supplement of paper PMC8728848
# The other results are listed elsewhere or left out.
# B1: CD4 (Rattus norvegicus), P05540 (protein)
# chain: MCRGFSFRHLLPLLLLQLSKLLVVTQGSTSITAYKSEGESAEFSFPLNLGEESLQGELRWKAEKAPSSQSWITFSLKNQKVSVQKSTSNPKFQLSETLPLTLQIPQVSLQFAGSGNLTLTLDRGILYQEVNLVVMKVTQPDSNTLTCEVMGPTSPKMRLILKQENQEARVSRQEKVIQVQAPEAGVWQCLLSEGEEVKMDSKIQVLSKGLNSGGGSGGGTGGGDLAPQMLRELQETNAALQDVRELLRQQVKEITFLKNTVMECDACGLDRNLPPLAPLGPHPETLVKVKDAEDQLGARVGYIELDLNSGKILESFRPEERFPMMSTFKVLLCGAVLSRIDAGQEQLGRRIHYSQNDLVEYSPVTEKHLTDGMTVRELCSAAITMSDNTAANLLLTTIGGPKELTAFLHNMGDHVTRLDRWEPELNEAIPNDERDTTMPVAMATTLRKLLTGELLTLASRQQLIDWMEADKVAGPLLRSALPAGWFIADKSGAGERGSRGIIAALGPDGKPSRIVVIYTTGSQATMDERNRQIAEIGASLIKHW
# How the values were obtained:
# Experiment in all cases: glycan array binding signal (z-score within array); higher = stronger binding
# Conditions in all cases: glycan notation: IUPAC condensed, linker removed
# [1] = molecular target: Neu5Ac(a2-6)GlcNAc(b1-4)GlcNAc(b1-4)GlcNAc
# Outline: (§1)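 Glycan array binding is given as a within-array Z-score, which can be read as non-binding when negative. The arrays, 3228 of them, came from the Consortium for Functional Glycomics database and were retained only where the protein sequence was available. Z-scores were averaged across arrays of the same protein sequence at different concentrations or buffers and across linkers.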
# Neu5Ac(a2-8)Neu5Ac = molecular target: Neu5Ac(a2-8)Neu5Ac
# Outline: as §1
# [2] = molecular target: Neu5Ac(a2-8)Neu5Ac(a2-3)Gal(b1-3)GalNAc(b1-4)[Neu5Ac(a2-3)]Gal(b1-4)Glc
# Outline: as §1
# [3] = molecular target: Neu5Ac(a2-8)Neu5Ac(a2-3)Gal(b1-3)GalNAc(b1-4)[Neu5Ac(a2-8)Neu5Ac(a2-3)]Gal(b1-4)Glc
# Outline: as §1
# [4] = molecular target: Neu5Ac(a2-8)Neu5Ac(a2-3)Gal(b1-4)Glc
# Outline: as §1
# [5] = molecular target: Neu5Ac(a2-8)Neu5Ac(a2-3)Gal(b1-4)GlcNAc
# Outline: as §1
# [6] = molecular target: Neu5Ac(a2-8)Neu5Ac(a2-3)[Gal(b1-3)GalNAc(b1-4)]Gal(b1-4)Glc
# Outline: as §1
# [7] = molecular target: Neu5Ac(a2-8)Neu5Ac(a2-3)[GalNAc(b1-4)]Gal(b1-4)Glc
# Outline: as §1
# [8] = molecular target: Neu5Ac(a2-8)Neu5Ac(a2-8)Neu5Ac
# Outline: as §1
# [9] = molecular target: Neu5Ac(a2-8)Neu5Ac(a2-8)Neu5Ac(a2-3)Gal(b1-4)Glc
# Outline: as §1
# [10] = molecular target: Neu5Ac(a2-8)Neu5Ac(a2-8)Neu5Ac(a2-3)[Gal(b1-3)GalNAc(b1-4)]Gal(b1-4)Glc
# Outline: as §1
# [11] = molecular target: Neu5Ac(a2-8)Neu5Ac(a2-8)Neu5Ac(a2-3)[GalNAc(b1-4)]Gal(b1-4)Glc
# Outline: as §1
# [12] = molecular target: Neu5Ac(a2-8)Neu5Ac(a2-8)Neu5Ac(a2-8)Neu5Ac(a2-3)[GalNAc(b1-4)]Gal(b1-4)Glc
# Outline: as §1
# [13] = molecular target: Neu5Ac(a2-8)Neu5Gc(a2-3)Gal(b1-4)GlcNAc
# Outline: as §1
# [14] = molecular target: Neu5Ac(b2-6)Gal(b1-4)GlcNAc
# Outline: as §1
# Neu5Ac(b2-6)GalNAc = molecular target: Neu5Ac(b2-6)GalNAc
# Outline: as §1
# [15] = molecular target: Neu5Ac9Ac(a2-3)Gal(b1-4)GlcNAc
# Outline: as §1
# [16] = molecular target: Neu5Ac9Ac(a2-6)Gal(b1-4)GlcNAc
# Outline: as §1
# [17] = molecular target: Neu5Gc(a2-3)Gal(b1-3)GlcNAc
# Outline: as §1
# [18] = molecular target: Neu5Gc(a2-3)Gal(b1-3)[Fuc(a1-4)]GlcNAc
# Outline: as §1
# Neu5Gc(a2-3)Gal(b1-4)Glc = molecular target: Neu5Gc(a2-3)Gal(b1-4)Glc
# Outline: as §1
# [19] = molecular target: Neu5Gc(a2-3)Gal(b1-4)GlcNAc
# Outline: as §1
# [20] = molecular target: Neu5Gc(a2-3)Gal(b1-4)GlcNAc(b1-3)Gal(b1-4)GlcNAc(b1-2)Man(a1-3)[Neu5Gc(a2-3)Gal(b1-4)GlcNAc(b1-3)Gal(b1-4)GlcNAc(b1-2)Man(a1-6)]Man(b1-4)GlcNAc(b1-4)GlcNAc
# Outline: as §1
# [21] = molecular target: Neu5Gc(a2-3)Gal(b1-4)[Fuc(a1-3)]GlcNAc
# Outline: as §1
# [22] = molecular target: Neu5Gc(a2-6)Gal(b1-4)GlcNAc
# Outline: as §1
# Neu5Gc(a2-6)GalNAc = molecular target: Neu5Gc(a2-6)GalNAc
# Outline: as §1
# [23] = molecular target: Neu5Gc(a2-8)Neu5Ac(a2-3)Gal(b1-4)GlcNAc
# Outline: as §1
# [24] = molecular target: Neu5Gc(a2-8)Neu5Gc(a2-3)Gal(b1-4)GlcNAc
# Outline: as §1
# [25] = molecular target: Neu5Gc(a2-8)Neu5Gc(a2-3)Gal(b1-4)GlcNAc(b1-3)Gal(b1-4)GlcNAc
# Outline: as §1
# [26] = molecular target: Neu5Gc(a2-8)Neu5Gc(a2-6)Gal(b1-4)GlcNAc
# Outline: as §1
# [27] = molecular target: Neu5Gc(b2-6)Gal(b1-4)GlcNAc
# Outline: as §1
binder,measurement,setting,value
B1,glycan array binding signal (z-score),[1],0.713
same,glycan array binding signal (z-score),Neu5Ac(a2-8)Neu5Ac,-0.643
same,glycan array binding signal (z-score),[2],-0.553
same,glycan array binding signal (z-score),[3],-0.666
same,glycan array binding signal (z-score),[4],-0.183
same,glycan array binding signal (z-score),[5],0.265
same,glycan array binding signal (z-score),[6],-0.287
same,glycan array binding signal (z-score),[7],-0.886
same,glycan array binding signal (z-score),[8],-0.62
same,glycan array binding signal (z-score),[9],0.827
same,glycan array binding signal (z-score),[10],0.105
same,glycan array binding signal (z-score),[11],0.35
same,glycan array binding signal (z-score),[12],-0.75
same,glycan array binding signal (z-score),[13],0.424
same,glycan array binding signal (z-score),[14],-0.404
same,glycan array binding signal (z-score),Neu5Ac(b2-6)GalNAc,-0.358
same,glycan array binding signal (z-score),[15],-0.078
same,glycan array binding signal (z-score),[16],0.028
same,glycan array binding signal (z-score),[17],0.459
same,glycan array binding signal (z-score),[18],-0.454
same,glycan array binding signal (z-score),Neu5Gc(a2-3)Gal(b1-4)Glc,-0.927
same,glycan array binding signal (z-score),[19],0.631
same,glycan array binding signal (z-score),[20],0.987
same,glycan array binding signal (z-score),[21],0.189
same,glycan array binding signal (z-score),[22],-0.014
same,glycan array binding signal (z-score),Neu5Gc(a2-6)GalNAc,-0.385
same,glycan array binding signal (z-score),[23],-0.129
same,glycan array binding signal (z-score),[24],0.026
same,glycan array binding signal (z-score),[25],-0.56
same,glycan array binding signal (z-score),[26],-0.341
same,glycan array binding signal (z-score),[27],-0.128

# Some of the entries so far, as tab-separated lines.
binder	measurement	setting	value
B1	glycan array binding signal (z-score)	[3]	-0.666
same	glycan array binding signal (z-score)	[8]	-0.62
same	glycan array binding signal (z-score)	[9]	0.827
same	glycan array binding signal (z-score)	[17]	0.459
same	glycan array binding signal (z-score)	[27]	-0.128
